Results are given in words; binding and its absence hold for the method and conditions named. Some binding calls cover weakened binding; strength is not graded here. Where a sequence is shown, tags or fusion partners need not be part of it. Each block holds one binder with its values, some of them ahead of it.
Legend:
Strep-PII = Strep-PII (UniProt Q55247); test: pull-down
[1] = biological target: T1, His6-tagged 2,3-bisphosphoglycerate-independent phosphoglycerate mutase (PGAM, Slr1945) (Synechocystis sp. PCC 6803) (UniProt P74507); test: BLI
T1 sequence: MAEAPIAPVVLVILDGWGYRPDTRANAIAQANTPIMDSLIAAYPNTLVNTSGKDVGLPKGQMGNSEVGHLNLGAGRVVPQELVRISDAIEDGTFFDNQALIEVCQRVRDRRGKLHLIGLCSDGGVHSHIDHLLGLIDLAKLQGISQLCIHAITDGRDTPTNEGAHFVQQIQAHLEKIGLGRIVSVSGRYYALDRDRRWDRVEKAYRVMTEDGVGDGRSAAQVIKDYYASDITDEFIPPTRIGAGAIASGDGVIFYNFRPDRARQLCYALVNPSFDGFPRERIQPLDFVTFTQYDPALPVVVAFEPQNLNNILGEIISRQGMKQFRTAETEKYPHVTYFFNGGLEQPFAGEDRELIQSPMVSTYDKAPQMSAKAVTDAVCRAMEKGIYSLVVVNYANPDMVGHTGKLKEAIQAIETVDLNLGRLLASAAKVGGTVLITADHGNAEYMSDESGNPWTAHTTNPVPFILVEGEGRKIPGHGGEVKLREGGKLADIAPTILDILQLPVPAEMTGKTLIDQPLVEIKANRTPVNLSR

Chains of the proteins cited; added tags and fusions are not shown.
UniProt Q55247, whole entry: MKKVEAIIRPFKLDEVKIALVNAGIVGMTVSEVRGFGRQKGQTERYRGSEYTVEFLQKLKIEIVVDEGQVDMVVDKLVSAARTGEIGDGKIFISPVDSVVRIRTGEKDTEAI

[2] = biological target: C-terminally His8-tagged PII (UniProt Q55247); test: BLI

binding (Strep-PII): binds
B1: His6-PirC (Sll0944), 112 amino acid version starting at Met 53 (protein, UniProt P77971 53-164)
chain: MSQILDPIPNNQPSALFCCYVNATNQIQVARITNVPNWYFERVVFPGQRLVFEAVPSAQLEIHTGMMASSIISDTIPCEQLSIDPDGLAAGGFISPEKEHESEDMTSQSLVA

binding [1]: binds | binding [2]: binds weakly
B2: Strep-tagged PirC (Sll0944), 112 amino acid version starting at Met 53 (protein, UniProt P77971 53-164)
chain: B1 chain

From paper doi:10.1101/2020.09.11.292599
